Measurements reported in PubChem BioAssay AID686943 (Drosophila RNAi Screening Center, 2013).
Test: 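Fly genes whose loss alters ERK activation after insulin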 (primary screen). System: Drosophila S2R+ haemocyte-like cells expressing YFP-tagged ERK (Rolled). Reagents: long dsRNA against Drosophila genes. Conditions: insulin stimulation versus unstimulated cells; dose and duration not given. Measured: 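Antibody staining for doubly phosphorylated ERK divided by ERK-YFP signal, as plate z-scores, in insulin-treated and untreated cells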. Reading the numbers: replicate 1, z-score of dpERK with insulin: higher = more active ERK per ERK-YFP after insulin.
In all, the deposit lists about 23,000 reagents; this is an unselected part of those that have a named target and a result. 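Extra replicates exist only for a retested subset of genes; insulin dose and duration not given; both raised and lowered dpERK matter.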 The numbers tell different reagents against one gene apart. Further read-outs or replicates are left out here. Not given: the amount of reagent, the time to read-out.

CG10660: replicate 1, z-score of dpERK with insulin = 0.82
CG15152: replicate 1, z-score of dpERK with insulin = -0.24
pxb #1: replicate 1, z-score of dpERK with insulin = 1.08
pxb #2: replicate 1, z-score of dpERK with insulin = 0.4
pxb #3: replicate 1, z-score of dpERK with insulin = 0.5
pxb #4: replicate 1, z-score of dpERK with insulin = 0.52
tej: replicate 1, z-score of dpERK with insulin = 0.36
TBPH: replicate 1, z-score of dpERK with insulin = -0.51
CG15200: replicate 1, z-score of dpERK with insulin = -0.26
CG10413: replicate 1, z-score of dpERK with insulin = -0.84
CG12655: replicate 1, z-score of dpERK with insulin = 0.87
CG1688: replicate 1, z-score of dpERK with insulin = 1.1
cato: replicate 1, z-score of dpERK with insulin = 0.01
Usp47: replicate 1, z-score of dpERK with insulin = 0.82
me31B: replicate 1, z-score of dpERK with insulin = 0.75
CG13049: replicate 1, z-score of dpERK with insulin = 0.29
CG8289: replicate 1, z-score of dpERK with insulin = 0.04
CG6729 #1: replicate 1, z-score of dpERK with insulin = -0.73
CG6729 #2: replicate 1, z-score of dpERK with insulin = -0.1
ppk28: replicate 1, z-score of dpERK with insulin = -0.19
PH4alphaSG2: replicate 1, z-score of dpERK with insulin = 0.56

3 consecutive entries already listed, quoted:
CG10413: replicate 1, z-score of dpERK with insulin = -0.84
CG12655: replicate 1, z-score of dpERK with insulin = 0.87
CG1688: replicate 1, z-score of dpERK with insulin = 1.1
